Source: PubChem BioAssay AID1259254 (NCATS, 2017)
Here is one part, drawn at random, of about 59,000 reagents tested. About 1,550 of all reagents (2.6%) were called active. 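G2 share is only a proxy for re-replication; each gene was hit by three separate siRNAs, and active genes were retested.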 Reagents against one gene are numbered here. Not all columns of the deposit are shown. No sequences are given here. Not stated in the record: the amount of reagent.

- Purpose: 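Finding genes that stop cells copying their DNA twice in one cycle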 (primary screen)
- Cell system: human HCT116 colorectal cancer cells
- Reagents: single siRNA against human genes
- Duration: 3 days
- Measured: 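Nuclei stained with Hoechst and imaged; cell-cycle phase assigned by DNA content; G2 share scaled per plate, non-targeting siRNA 0%, GMNN siRNA 100%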
- Direction: G2 robust z-score and G2 cells, % of GMNN control: higher = more G2 cells, more excess DNA replication
- Active means: 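Active siRNAs have a G2 robust z of 5 or more median absolute deviations over the median, which in these data means about 38% or higher of GMNN control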

How did the screen score RNF168 #1?
G2 robust z-score: 0.469; G2 cells, % of GMNN control: 6.27; Call: inactive

For RNF168 #2, how do the results read?
G2 robust z-score: -0.323; G2 cells, % of GMNN control: 0.694; Call: inactive

With RNF168 #3, how do the results read?
G2 robust z-score: -0.0801; G2 cells, % of GMNN control: 2.4; Call: inactive

With PSMB9 #1, what was measured?
G2 robust z-score: 2.21; G2 cells, % of GMNN control: 18.5; Call: inactive

How did the screen score PSMB9 #2?
G2 robust z-score: 0.404; G2 cells, % of GMNN control: 5.81; Call: inactive

How did the screen score PSMB9 #3?
G2 robust z-score: -0.0958; G2 cells, % of GMNN control: 2.29; Call: inactive

With SLC26A7 #1, what was measured?
G2 robust z-score: 1.24; G2 cells, % of GMNN control: 11.7; Call: inactive

For SLC26A7 #2, what was measured?
G2 robust z-score: 0.232; G2 cells, % of GMNN control: 4.6; Call: inactive

For SLC26A7 #3, what does the deposit list?
G2 robust z-score: 1.5; G2 cells, % of GMNN control: 13.5; Call: inactive

What did the screen give for TEX261 #1?
G2 robust z-score: -0.678; G2 cells, % of GMNN control: -1.81; Call: inactive

What is on record for TEX261 #2?
G2 robust z-score: 3.48; G2 cells, % of GMNN control: 27.5; Call: inactive

Which result is listed for TEX261 #3?
G2 robust z-score: -0.311; G2 cells, % of GMNN control: 0.779; Call: inactive

For FYB1 #1, what was measured?
G2 robust z-score: -0.533; G2 cells, % of GMNN control: -0.783; Call: inactive

For FYB1 #2, what does the deposit list?
G2 robust z-score: -0.526; G2 cells, % of GMNN control: -0.732; Call: inactive

What did the screen give for FYB1 #3?
G2 robust z-score: -0.513; G2 cells, % of GMNN control: -0.641; Call: inactive

How did the screen score MPPE1 #1?
G2 robust z-score: -0.238; G2 cells, % of GMNN control: 1.29; Call: inactive

What did the screen give for MPPE1 #2?
G2 robust z-score: 0.694; G2 cells, % of GMNN control: 7.85; Call: inactive

For MPPE1 #3, how do the results read?
G2 robust z-score: 3.48; G2 cells, % of GMNN control: 27.4; Call: inactive
